From paper PMC4810121, “Proteomics Analysis Reveals Novel RASSF2 Interaction Partners” (Cancers, 2016)
Results are given in words; binding and its absence hold for the method and conditions named. In cells and extracts the contact can be indirect. Here binding means that the protein was enriched with, or labelled near, the bait; the list need not be complete. For some assays here: No binding means not detected with the bait. Where a sequence is shown, tags or fusion partners need not be part of it.

Amino acid sequences for entries named in this document (tags omitted). Residues count along the entry.
UniProt P08670: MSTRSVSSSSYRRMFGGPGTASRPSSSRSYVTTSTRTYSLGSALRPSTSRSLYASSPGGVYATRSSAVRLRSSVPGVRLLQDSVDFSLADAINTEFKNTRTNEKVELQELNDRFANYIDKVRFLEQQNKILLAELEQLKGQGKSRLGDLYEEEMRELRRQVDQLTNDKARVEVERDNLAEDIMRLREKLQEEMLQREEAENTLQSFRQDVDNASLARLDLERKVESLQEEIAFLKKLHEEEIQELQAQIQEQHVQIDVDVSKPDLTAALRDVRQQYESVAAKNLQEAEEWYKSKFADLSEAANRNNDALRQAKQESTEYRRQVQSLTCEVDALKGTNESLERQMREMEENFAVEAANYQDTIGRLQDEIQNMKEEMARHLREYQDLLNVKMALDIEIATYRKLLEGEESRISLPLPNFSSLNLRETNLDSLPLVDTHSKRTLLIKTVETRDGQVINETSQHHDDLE
UniProt Q8IWZ3: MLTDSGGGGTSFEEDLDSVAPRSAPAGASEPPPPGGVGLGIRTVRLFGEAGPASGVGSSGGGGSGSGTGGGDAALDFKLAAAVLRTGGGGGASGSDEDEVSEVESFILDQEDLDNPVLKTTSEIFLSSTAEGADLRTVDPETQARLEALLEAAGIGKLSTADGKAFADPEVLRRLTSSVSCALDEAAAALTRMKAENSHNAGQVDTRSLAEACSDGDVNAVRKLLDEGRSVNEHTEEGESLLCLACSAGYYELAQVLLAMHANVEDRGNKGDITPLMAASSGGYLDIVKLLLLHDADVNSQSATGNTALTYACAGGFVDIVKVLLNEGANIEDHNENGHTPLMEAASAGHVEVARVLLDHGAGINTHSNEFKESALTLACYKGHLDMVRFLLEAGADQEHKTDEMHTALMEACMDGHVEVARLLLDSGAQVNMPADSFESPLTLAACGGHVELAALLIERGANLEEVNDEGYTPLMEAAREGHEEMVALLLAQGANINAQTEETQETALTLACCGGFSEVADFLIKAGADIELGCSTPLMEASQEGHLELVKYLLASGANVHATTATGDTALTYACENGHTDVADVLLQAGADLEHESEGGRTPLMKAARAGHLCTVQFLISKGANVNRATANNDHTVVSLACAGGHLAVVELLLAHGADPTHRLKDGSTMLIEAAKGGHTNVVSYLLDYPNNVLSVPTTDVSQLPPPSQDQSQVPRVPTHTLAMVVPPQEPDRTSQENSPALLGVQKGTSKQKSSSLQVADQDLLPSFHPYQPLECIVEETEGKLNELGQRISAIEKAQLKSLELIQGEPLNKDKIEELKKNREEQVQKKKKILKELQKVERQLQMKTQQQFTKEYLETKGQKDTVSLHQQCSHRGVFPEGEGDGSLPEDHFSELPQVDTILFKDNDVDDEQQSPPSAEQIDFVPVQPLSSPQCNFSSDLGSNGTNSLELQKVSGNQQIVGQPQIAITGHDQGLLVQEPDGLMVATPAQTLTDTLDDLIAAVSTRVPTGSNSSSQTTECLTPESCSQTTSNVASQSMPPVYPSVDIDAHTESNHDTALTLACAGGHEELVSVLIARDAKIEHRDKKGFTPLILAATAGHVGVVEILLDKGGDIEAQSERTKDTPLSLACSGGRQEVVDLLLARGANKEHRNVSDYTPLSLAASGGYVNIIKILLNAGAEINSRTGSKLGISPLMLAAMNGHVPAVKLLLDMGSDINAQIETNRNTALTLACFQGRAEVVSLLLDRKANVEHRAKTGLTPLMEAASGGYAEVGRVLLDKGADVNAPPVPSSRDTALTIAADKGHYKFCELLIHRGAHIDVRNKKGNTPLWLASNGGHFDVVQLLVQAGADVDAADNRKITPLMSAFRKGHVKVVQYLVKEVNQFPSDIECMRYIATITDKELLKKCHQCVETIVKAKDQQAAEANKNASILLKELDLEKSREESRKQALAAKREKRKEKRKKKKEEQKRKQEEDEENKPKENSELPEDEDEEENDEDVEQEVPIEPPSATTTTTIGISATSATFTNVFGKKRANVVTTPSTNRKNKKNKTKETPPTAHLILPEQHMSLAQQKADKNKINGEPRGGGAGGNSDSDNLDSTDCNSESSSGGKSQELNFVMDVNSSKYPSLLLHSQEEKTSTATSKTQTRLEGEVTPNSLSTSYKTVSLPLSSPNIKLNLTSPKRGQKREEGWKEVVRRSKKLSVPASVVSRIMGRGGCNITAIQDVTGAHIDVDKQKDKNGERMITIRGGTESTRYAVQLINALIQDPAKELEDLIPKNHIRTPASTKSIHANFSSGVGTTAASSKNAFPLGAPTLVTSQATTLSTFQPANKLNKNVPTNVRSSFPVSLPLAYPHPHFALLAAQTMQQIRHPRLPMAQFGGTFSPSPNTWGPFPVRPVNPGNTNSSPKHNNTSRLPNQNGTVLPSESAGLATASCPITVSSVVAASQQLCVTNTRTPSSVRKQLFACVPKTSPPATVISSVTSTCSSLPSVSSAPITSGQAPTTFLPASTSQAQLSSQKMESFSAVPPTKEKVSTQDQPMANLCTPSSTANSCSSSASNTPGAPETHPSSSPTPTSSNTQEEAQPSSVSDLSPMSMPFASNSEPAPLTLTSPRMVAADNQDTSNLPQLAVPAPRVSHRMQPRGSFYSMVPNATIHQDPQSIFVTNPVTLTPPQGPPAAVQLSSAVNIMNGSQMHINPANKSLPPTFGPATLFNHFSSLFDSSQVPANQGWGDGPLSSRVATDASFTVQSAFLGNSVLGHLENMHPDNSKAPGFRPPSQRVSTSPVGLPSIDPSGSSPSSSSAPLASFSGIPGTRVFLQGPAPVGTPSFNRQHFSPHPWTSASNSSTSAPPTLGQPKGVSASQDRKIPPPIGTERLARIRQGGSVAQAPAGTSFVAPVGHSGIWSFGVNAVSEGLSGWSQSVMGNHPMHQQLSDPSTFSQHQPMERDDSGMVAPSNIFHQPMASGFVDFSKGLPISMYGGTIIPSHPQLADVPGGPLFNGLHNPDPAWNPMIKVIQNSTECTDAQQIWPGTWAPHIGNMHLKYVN
UniProt P62258: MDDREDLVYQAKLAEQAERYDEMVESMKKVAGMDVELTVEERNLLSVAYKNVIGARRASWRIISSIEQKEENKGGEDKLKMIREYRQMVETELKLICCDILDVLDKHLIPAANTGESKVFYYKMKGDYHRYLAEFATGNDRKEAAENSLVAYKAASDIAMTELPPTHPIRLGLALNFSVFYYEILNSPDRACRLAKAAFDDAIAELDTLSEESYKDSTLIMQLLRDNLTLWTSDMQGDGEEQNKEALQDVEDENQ
UniProt Q07021, residues 74-282: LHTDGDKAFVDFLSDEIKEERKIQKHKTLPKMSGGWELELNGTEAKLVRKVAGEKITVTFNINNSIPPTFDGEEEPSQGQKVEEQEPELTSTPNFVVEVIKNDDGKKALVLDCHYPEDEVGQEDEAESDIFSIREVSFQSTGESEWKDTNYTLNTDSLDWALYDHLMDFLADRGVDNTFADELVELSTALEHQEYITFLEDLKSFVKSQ

T1: HA-tagged RASSF2 (UniProt P50749)
T1 sequence: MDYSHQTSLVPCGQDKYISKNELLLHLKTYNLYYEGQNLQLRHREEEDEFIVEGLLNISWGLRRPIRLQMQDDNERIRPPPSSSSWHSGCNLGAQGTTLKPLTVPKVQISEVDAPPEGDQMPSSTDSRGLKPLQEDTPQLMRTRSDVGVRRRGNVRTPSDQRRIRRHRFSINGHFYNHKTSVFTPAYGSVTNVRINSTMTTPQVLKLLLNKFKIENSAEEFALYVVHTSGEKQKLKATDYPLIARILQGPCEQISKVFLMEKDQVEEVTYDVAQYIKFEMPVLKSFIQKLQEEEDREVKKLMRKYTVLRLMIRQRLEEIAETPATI

B1: Protein phosphatase 1G (protein, UniProt O15355 1-546)
chain: MGAYLSQPNTVKCSGDGVGAPRLPLPYGFSAMQGWRVSMEDAHNCIPELDSETAMFSVYDGHGGEEVALYCAKYLPDIIKDQKAYKEGKLQKALEDAFLAIDAKLTTEEVIKELAQIAGRPTEDEDEKEKVADEDDVDNEEAALLHEEATMTIEELLTRYGQNCHKGPPHSKSGGGTGEEPGSQGLNGEAGPEDSTRETPSQENGPTAKAYTGFSSNSERGTEAGQVGEPGIPTGEAGPSCSSASDKLPRVAKSKFFEDSEDESDEAEEEEEDSEECSEEEDGYSSEEAENEEDEDDTEEAEEDDEEEEEEMMVPGMEGKEEPGSDSGTTAVVALIRGKQLIVANAGDSRCVVSEAGKALDMSYDHKPEDEVELARIKNAGGKVTMDGRVNGGLNLSRAIGDHFYKRNKNLPPEEQMISALPDIKVLTLTDDHEFMVIACDGIWNVMSSQEVVDFIQSKISQRDENGELRLLSSIVEELLDQCLAPDTSGDGTGCDNMTCIIICFKPRNTAELQPESGKRKLEEVLSTEGAEENGNSDKKKKAKRD
B2: Ribonuclease inhibitor (protein, UniProt P13489 1-461)
chain: MSLDIQSLDIQCEELSDARWAELLPLLQQCQVVRLDDCGLTEARCKDISSALRVNPALAELNLRSNELGDVGVHCVLQGLQTPSCKIQKLSLQNCCLTGAGCGVLSSTLRTLPTLQELHLSDNLLGDAGLQLLCEGLLDPQCRLEKLQLEYCSLSAASCEPLASVLRAKPDFKELTVSNNDINEAGVRVLCQGLKDSPCQLEALKLESCGVTSDNCRDLCGIVASKASLRELALGSNKLGDVGMAELCPGLLHPSSRLRTLWIWECGITAKGCGDLCRVLRAKESLKELSLAGNELGDEGARLLCETLLEPGCQLESLWVKSCSFTAACCSHFSSVLAQNRFLLELQISNNRLEDAGVRELCQGLGQPGSVLRVLWLADCDVSDSSCSSLAATLLANHSLRELDLSNNCLGDAGILQLVESVRQPGCLLEQLVLYDIYWSEEMEDRLQALEKDKPSLRVIS

target: T1, HA-tagged RASSF2; experiment: condition: only with activated K-Ras12v co-expressed; affinity purification with mass spectrometry; as a1, sample with activated K-Ras12v co-expressed (+K-Ras12v column)

binding | Molecule
no binding | Vimentin (endogenous, HEK-293T) (from UniProt P08670 1-466)

target: T1, HA-tagged RASSF2; experiment: affinity purification with mass spectrometry; HA-RASSF2 transfected into HEK-293T cells, immunoprecipitated by the HA tag; co-purifying proteins identified by LC-MS; done in the presence and absence of activated K-Ras12v

binding | Molecule
binds | Ankyrin repeat and KH domain-containing protein 1 (from UniProt Q8IWZ3 1-2542)
binds | 14-3-3ε (from UniProt P62258 1-255)
binds | C1QBP (endogenous, HEK-293T) (from UniProt Q07021 74-282)
binds | Vimentin (endogenous, HEK-293T) (from UniProt P08670 1-466)
binds | DnaJ homolog subfamily A member 1 (from UniProt P31689 1-397)
binds | B1
binds | B2
